Reference: PubChem BioAssay AID1508588 (Peter MacCallum Cancer Centre, 2020)

Aim: 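Which gene losses make BRAF-mutant melanoma cells more responsive to vemurafenib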 (primary screen)
System: human WM266.4 melanoma cells (BRAF V600 mutant)
Knock-down reagent: siRNA pool against human genes, 40 nM
Timing: 96 h from transfection to read-out
Conditions: vemurafenib 300 nM (about IC25), added 48 h after transfection, for 48 h; comparison arm got DMSO vehicle only
Measured: 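Ratios to non-targeting siRNA for cell gain, counted as DAPI nuclei after minus before drug and averaged over two replicates, and for absorbance-read medium lactate per cell; both binned into fold-change classes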
Direction: cell gain with vemurafenib: higher = more cell gain than with non-targeting siRNA; lactate per cell with vemurafenib: higher = more lactate made per cell
Call rule: 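Enhancement is called by pairing each knock-down's vehicle-arm and drug-arm fold-change classes for viability or glycolysis; which class combinations qualify is not given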
Meaning of the calls: active = enhances vemurafenib effect; inactive = no enhancement seen
This is an unselected part of about 18,000 deposited reagents. 790 of them (4.4%) were called active. 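Calls rest on a combination of fold-change classes in drug and vehicle arms, not all shown here.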 Unmarked entries are inactive. The numbers tell different reagents against one gene apart. Reagent sequences are not shown.

no.	target	reagent no.	cell gain with vemurafenib	lactate per cell with vemurafenib
1	CLOCK (clock circadian regulator)	1	0.82	1.08
2	C8orf34 (chromosome 8 open reading frame 34)	1	0.75	1.03
3	TBX20 (T-box transcription factor 20)	1	0.35	2.36
4	CTAGE6 (CTAGE family member 6)	1	0.32	1.58
5	CALR3 (calreticulin 3)	1	0.59	0.74
6	CDC42EP2 (CDC42 effector protein 2)	1	0.7	0.6
7	UNC5C (unc-5 netrin receptor C)	1	0.53	0.93
8	HDLBP (high density lipoprotein binding protein)	1	0.71	0.7
9	OR7G3 (olfactory receptor family 7 subfamily G member 3)	1	0.23	0.84
10	EBP (EBP cholestenol delta-isomerase)	1	1.11	0.51
11	FBXW8 (F-box and WD repeat domain containing 8)	1	0.71	0.92
12	TMEM218 (transmembrane protein 218)	1	0.54	1.15
13	SH3YL1 (SH3 and SYLF domain containing 1)	1	1.44	0.78
14	ADAMTS8 (ADAM metallopeptidase with thrombospondin type 1 motif 8)	1	0.75	0.74
15	STX17 (syntaxin 17)	1	0.51	0.89
16	ADHFE1 (alcohol dehydrogenase iron containing 1)	1	1.01	0.78
17	VIPR2 (vasoactive intestinal peptide receptor 2)	1	0.48	0.71
18	SFTPD (surfactant protein D)	1	0.45	1.55
19	NCAPD2 (non-SMC condensin I complex subunit D2)	1	0.75 (active)	0.66
20	TNS3 (tensin 3)	1	0.73	1.11
21	COA7 (cytochrome c oxidase assembly factor 7)	1	0.63	1.28
22	DRAP1 (DR1 associated protein 1)	1	0.49	1.51
23	ZNF385C (zinc finger protein 385C)	1	1.25	0.64
24	L3MBTL1 (L3MBTL histone methyl-lysine binding protein 1)	1	0.94	1.17
25	GGT2P (gamma-glutamyltransferase 2, pseudogene)	1	0.46	0.73
26	STAT3 (signal transducer and activator of transcription 3)	1	0.4	1.87
27	CBLC (Cbl proto-oncogene C)	1	1.02	0.86
28	KIAA0408	1	0.82	0.66
29	HOXD3 (homeobox D3)	1	0.67	1.11
30	GPR135 (G protein-coupled receptor 135)	1	0.97	1.06
31	PREPL (prolyl endopeptidase like)	1	0.6	1.13
32	ZDHHC16 (zDHHC palmitoyltransferase 16)	1	0.41	1.58

10 entries from above, set out differently:
CDC42EP2 (CDC42 effector protein 2)
- cell gain with vemurafenib: 0.7
- lactate per cell with vemurafenib: 0.6

UNC5C (unc-5 netrin receptor C)
- cell gain with vemurafenib: 0.53
- lactate per cell with vemurafenib: 0.93

HDLBP (high density lipoprotein binding protein)
- cell gain with vemurafenib: 0.71
- lactate per cell with vemurafenib: 0.7

OR7G3 (olfactory receptor family 7 subfamily G member 3)
- cell gain with vemurafenib: 0.23
- lactate per cell with vemurafenib: 0.84

EBP (EBP cholestenol delta-isomerase)
- cell gain with vemurafenib: 1.11
- lactate per cell with vemurafenib: 0.51

FBXW8 (F-box and WD repeat domain containing 8)
- cell gain with vemurafenib: 0.71
- lactate per cell with vemurafenib: 0.92

TMEM218 (transmembrane protein 218)
- cell gain with vemurafenib: 0.54
- lactate per cell with vemurafenib: 1.15

SH3YL1 (SH3 and SYLF domain containing 1)
- cell gain with vemurafenib: 1.44
- lactate per cell with vemurafenib: 0.78

ADAMTS8 (ADAM metallopeptidase with thrombospondin type 1 motif 8)
- cell gain with vemurafenib: 0.75
- lactate per cell with vemurafenib: 0.74

STX17 (syntaxin 17)
- cell gain with vemurafenib: 0.51
- lactate per cell with vemurafenib: 0.89

The list goes on.
no.	target	reagent no.	cell gain with vemurafenib	lactate per cell with vemurafenib
33	ZNF564 (zinc finger protein 564)	1	0.24	0.23
34	OSER1 (oxidative stress responsive serine rich 1)	1	0.41	1.27
35	MRPL30 (mitochondrial ribosomal protein L30)	1	0.7	1.12
36	TRADD (TNFRSF1A associated via death domain)	1	0.4	1.27
37	ALDH5A1 (aldehyde dehydrogenase 5 family member A1)	1	0.7	0.74
38	NPR3 (natriuretic peptide receptor 3)	1	0.95	0.66
39	NPR3 (natriuretic peptide receptor 3)	2	0.51	0.94
40	ETFDH (electron transfer flavoprotein dehydrogenase)	1	0.74 (active)	0.53
41	C3P1 (complement 3 precursor pseudogene)	1	0.85	0.73
42	AP1B1 (adaptor related protein complex 1 subunit beta 1)	1	0.12	0.92
43	RNF6 (ring finger protein 6)	1	1.06	0.87
44	LAMTOR5 (late endosomal/lysosomal adaptor, MAPK and MTOR activator 5)	1	0.45	1.29
45	TMEM164 (transmembrane protein 164)	1	0.36	0.81
46	NCR1 (natural cytotoxicity triggering receptor 1)	1	0.31	1.63
47	NENF (neudesin neurotrophic factor)	1	0.56	1.17
48	SELPLG (selectin P ligand)	1	0.53	1.69
49	ZNF782 (zinc finger protein 782)	1	0.71	1.14
50	ENY2 (ENY2 transcription and export complex 2 subunit)	1	0.72	1.1
51	SH3PXD2B (SH3 and PX domains 2B)	1	1.22	1.12
52	PRODH (proline dehydrogenase 1)	1	0.39	0.6
53	BAG6 (BAG cochaperone 6)	1	0.25	0.94
54	IGHMBP2 (immunoglobulin mu DNA binding protein 2)	1	0.4	2.12
55	IPO8 (importin 8)	1	0.72	0.33
56	KRT18 (keratin 18)	1	0.23	1.46
57	PIK3IP1 (phosphoinositide-3-kinase interacting protein 1)	1	0.22	1.23
58	NDE1 (nudE neurodevelopment protein 1)	1	-0.06	1.42
59	IFI27L2 (interferon alpha inducible protein 27 like 2)	1	0.03	2.88
60	DPH3 (diphthamide biosynthesis 3)	1	0.9	0.74
61	SLC11A1	1	0.5	0.89
62	TXLNB (taxilin beta)	1	0.81	1.02
63	CELF1 (CUGBP Elav-like family member 1)	1	0.9	1.27
64	ACE (angiotensin I converting enzyme)	1	0.98	1.12
65	CHMP1A (charged multivesicular body protein 1A)	1	0.66	1.56
66	PPP1R27 (protein phosphatase 1 regulatory subunit 27)	1	0.76	0.36
67	ZNF71 (zinc finger protein 71)	1	0.2	1.82
68	ZNF678 (zinc finger protein 678)	1	0.38	0.94
69	ATP1A1 (ATPase Na+/K+ transporting subunit alpha 1)	1	0.86	0.83
70	CD68 (CD68 molecule)	1	0.21	1.39
71	SLC35E4	1	0.92	2.05
72	RUSF1 (RUS family member 1)	1	0.82	1.03
73	ATN1 (atrophin 1)	1	0.24	0.92
74	WDR45B (WD repeat domain 45B)	1	1.04	0.72
75	HJV (hemojuvelin BMP co-receptor)	1	0.61	1.13
76	CFAP45 (cilia and flagella associated protein 45)	1	0.39	1.27
77	SLC10A5	1	0.34	0.94
78	COL13A1 (collagen type XIII alpha 1 chain)	1	0.54	1.28
79	APOC1 (apolipoprotein C1)	1	0.81	0.77
80	GYS2 (glycogen synthase 2)	1	0.44	1.19
81	SLC35D2	1	0.42	1.38
82	RPH3A (rabphilin 3A)	1	0.37	0.4
83	LRRC34 (leucine rich repeat containing 34)	1	0.48 (active)	0.31
84	PTPA (protein phosphatase 2 phosphatase activator)	1	0.88	1.38
